This passage reports binding results from PMC11473679.

Amino acid sequences for entries named in this document (tags omitted). Residues count along the entry.
UniProt Q8BMS1, residues 37-763: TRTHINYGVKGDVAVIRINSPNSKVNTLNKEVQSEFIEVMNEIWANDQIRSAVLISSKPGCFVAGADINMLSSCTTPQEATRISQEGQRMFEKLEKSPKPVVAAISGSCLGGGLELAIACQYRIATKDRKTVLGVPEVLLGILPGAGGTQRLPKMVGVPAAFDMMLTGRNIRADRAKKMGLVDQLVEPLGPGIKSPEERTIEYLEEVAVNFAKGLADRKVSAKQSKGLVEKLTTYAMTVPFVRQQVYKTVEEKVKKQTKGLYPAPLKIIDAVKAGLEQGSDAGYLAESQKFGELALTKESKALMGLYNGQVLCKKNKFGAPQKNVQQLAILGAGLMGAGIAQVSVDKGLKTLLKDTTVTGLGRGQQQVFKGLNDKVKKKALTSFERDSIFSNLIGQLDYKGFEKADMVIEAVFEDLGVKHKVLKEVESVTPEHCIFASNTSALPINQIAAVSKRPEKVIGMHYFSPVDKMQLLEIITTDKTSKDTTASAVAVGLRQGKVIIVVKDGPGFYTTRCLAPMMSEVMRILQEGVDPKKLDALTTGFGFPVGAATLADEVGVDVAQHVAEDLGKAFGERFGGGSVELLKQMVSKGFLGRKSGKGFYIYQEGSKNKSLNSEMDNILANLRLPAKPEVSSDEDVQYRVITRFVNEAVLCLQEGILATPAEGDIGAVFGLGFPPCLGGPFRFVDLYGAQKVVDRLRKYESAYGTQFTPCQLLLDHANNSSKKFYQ

For this assay, the target named is T1, Melusin (human, transgenic in the heart of Mel over mice) (human) (UniProt Q9UKP3).
T1 sequence: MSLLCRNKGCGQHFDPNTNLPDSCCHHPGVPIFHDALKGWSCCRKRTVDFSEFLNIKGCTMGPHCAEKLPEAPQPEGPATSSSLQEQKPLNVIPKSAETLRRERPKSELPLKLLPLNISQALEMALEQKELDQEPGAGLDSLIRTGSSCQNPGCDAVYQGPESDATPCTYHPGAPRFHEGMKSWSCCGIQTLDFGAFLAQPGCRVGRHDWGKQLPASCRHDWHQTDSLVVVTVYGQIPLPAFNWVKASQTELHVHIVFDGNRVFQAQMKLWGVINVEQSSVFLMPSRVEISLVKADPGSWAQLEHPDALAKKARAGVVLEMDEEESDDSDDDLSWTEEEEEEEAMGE
The assay is described as follows: affinity purification with mass spectrometry; Melusin immunoprecipitation from cardiac total extracts of Mel over mice, Mel null mice as controls; Coomassie-stained bands cut out and identified by mass spectrometry.

These are yes or no findings as the source states them, for the method shown. Binding seen in cells or lysates may run through a third protein. A yes stands for co-enrichment or nearness to the bait. Other partners may have been found.

As for “α subunit of the mitochondrial trifunctional protein (mouse) (from UniProt Q8BMS1 37-763)”, the binding result is “binds”.

B1: β subunit of the mitochondrial trifunctional protein (mouse) (protein, UniProt Q99JY0 35-475)
chain: SAPAVQTKSKKTLAKPNMKNIVVVEGVRIPFLLSGTSYKDLMPHDLARAALSGLLHRTNIPKDVVDYIIFGTVIQEVKTSNVAREAALGAGFSDKTPAHTVTMACISSNQAMTTAVGLIASGQCDVVVAGGVELMSDVPIRHSRNMRKMMLDLNKAKTLGQRLSLLSKFRLNFLSPELPAVAEFSTNETMGHSADRLAAAFAVSRMEQDEYALRSHSLAKKAQDEGHLSDIVPFKVPGKDTVTKDNGIRPSSLEQMAKLKPAFIKPYGTVTAANSSFLTDGASAMLIMSEDRALAMGYKPKAYLRDFIYVSQDPKDQLLLGPTYATPKVLEKAGLTMNDIDAFEFHEAFSGQILANFKAMDSDWFAQNYMGRKTKVGSPPLEKFNIWGGSLSLGHPFGATGCRLVMAAANRLRKDGGQYALVAACAAGGQGHAMIVEAYPK
Turning to B1, the binding result is recorded as “binds”.
